The target in experiment [1] is T1, actin-specific bicyclic peptide A15.
T1 sequence (peptide, FITC labeled; bicyclic (circularized) peptide): ACYRQWNKCENGWVRCG
The experiment in a line: affinity purification with mass spectrometry; FITC-labelled bicyclic peptide A15 (F- and G-actin) on anti-FITC antibody/Protein G Dynal beads; total yeast cell lysate, 1.5 h at 4 °C; 50 mM HEPES pH 7.5, 20 mM NaCl, 1 mM EDTA, 0.1% Triton X-100; silver-stained bands identified by mass spectrometry; pair: peptide and actin; only the target purified.

Experiment [2] addresses T2, actin-specific bicyclic peptide A18.
T2 sequence (peptide, FITC labeled; bicyclic (circularized) peptide): ACREGQVACMVRKFECG
The experiment is described as follows: affinity purification with mass spectrometry; FITC-labelled bicyclic peptide A18 (F-actin specific) on anti-FITC antibody/Protein G Dynal beads; total yeast cell lysate, 1.5 h at 4 °C; 50 mM HEPES pH 7.5, 20 mM NaCl, 1 mM EDTA, 0.1% Triton X-100; silver-stained bands identified by mass spectrometry; pair: peptide and actin; only the target purified.

In experiment [3] the target is actin (S. cerevisiae (endogenous in yeast extract)) (UniProt P60010). The experiment in a line: affinity purification with mass spectrometry; actin captured from total yeast cell lysate by bead-bound bicyclic peptide A15 (F- and G-actin), 1.5 h at 4 °C; 50 mM HEPES pH 7.5, 20 mM NaCl, 1 mM EDTA, 0.1% Triton X-100; proteins recovered with actin identified by mass spectrometry of silver-stained bands.

For experiment [4] the target is unchanged. The experiment is described as follows: affinity purification with mass spectrometry; actin captured from total yeast cell lysate by bead-bound bicyclic peptide A18 (F-actin specific), 1.5 h at 4 °C; 50 mM HEPES pH 7.5, 20 mM NaCl, 1 mM EDTA, 0.1% Triton X-100; proteins recovered with actin identified by mass spectrometry of silver-stained bands.

Results are given in words; binding and its absence hold for the method and conditions named. In cells and extracts the contact can be indirect. These calls come from enrichment with a bait or labelling near it, and not all partners need be listed.

For the molecule actin (from UniProt P60010 1-375), the binding entry in experiment [1] and in experiment [2] was “binds” throughout.
Las17 (from UniProt Q12446 1-633): the binding entry in experiment [3] and in experiment [4] was “binds” each time.

B1: Sla2 (protein, UniProt P33338 1-968)
chain: MSRIDSDLQKALKKACSVEETAPKRKHVRACIVYTWDHQSSKAVFTTLKTLPLANDEVQLFKMLIVLHKIIQEGHPSALAEAIRDRDWIRSLGRVHSGGSSYSKLIREYVRYLVLKLDFHAHHRGFNNGTFEYEEYVSLVSVSDPDEGYETILDLMSLQDSLDEFSQIIFASIQSERRNTECKISALIPLIAESYGIYKFITSMLRAMHRQLNDAEGDAALQPLKERYELQHARLFEFYADCSSVKYLTTLVTIPKLPVDAPDVFLINDVDESKEIKFKKREPSVTPARTPARTPTPTPPVVAEPAISPRPVSQRTTSTPTGYLQTMPTGATTGMMIPTATGAANAIFPQATAQMQPDFWANQQAQFANEQNRLEQERVQQLQQQQAQQELFQQQLQKAQQDMMNMQLQQQNQHQNDLIALTNQYEKDQALLQQYDQRVQQLESEITTMDSTASKQLANKDEQLTALQDQLDVWERKYESLAKLYSQLRQEHLNLLPRFKKLQLKVNSAQESIQKKEQLEHKLKQKDLQMAELVKDRDRARLELERSINNAEADSAAATAAAETMTQDKMNPILDAILESGINTIQESVYNLDSPLSWSGPLTPPTFLLSLLESTSENATEFATSFNNLIVDGLAHGDQTEVIHCVSDFSTSMATLVTNSKAYAVTTLPQEQSDQILTLVKRCAREAQYFFEDLMSENLNQVGDEEKTDIVINANVDMQEKLQELSLAIEPLLNIQSVKSNKETNPHSELVATADKIVKSSEHLRVDVPKPLLSLALMIIDAVVALVKAAIQCQNEIATTTSIPLNQFYLKNSRWTEGLISAAKAVAGATNVLITTASKLITSEDNENTSPEQFIVASKEVAASTIQLVAASRVKTSIHSKAQDKLEHCSKDVTDACRSLGNHVMGMIEDDHSTSQQQQPLDFTSEHTLKTAEMEQQVEILKLEQSLSNARKRLGEIRRHAYYNQDDD
In the case of B1, the binding result in experiment [3] and in experiment [4] was “binds” in each case.

B2: Pan1 (protein, UniProt P32521 1-1480)
chain: MYNPYQQQGMGYQQQQQQQQQQPNGFYPQQQQGQSSNQPQGQPQPQQQMAFNQPQATGIGGMPQSFGNSFSSMPQQPQTGYNNNGNNGSVYGNGNFGQQPQQQQQQAKPQHTGYVPNSSMPMMNTTGTMPPPNPAQQPQLQSIQPQGTGYYQAANTANVHSVQPLQSQGTGYYVSTPNLISSNQTQQPLQAQGTGYYQSQPQQVPPPQQAQSLQPLKPQQTGFYLQPQNQAPLEPLKPTATGFVNSFANNGLNNDIKIPAIRLSFITAQDQAKFETLFRSIVTNGSNTVSGANCRKILMRSGLPPSQLARIWTLCDTSKAGELLFPEFALAMHLINDVLQGDTIPYELDSKTKNEVSSFIDAINLSIANQDSSANDAPKTPFDEFITAGVQNLQPQPTGYMPQTSFGIPLQSQITGGGVASALNPQSTGFMAPTTFNMSMNTGTPGLNPQITGGAPASMQPNITGNALQPQTTGMMPQTTGMMPQTTGMMPQTSFGVNLGPQLTGGALQSQYTGGYGSVMPQQSGPASMPNLSFNQQGLQSQLTGLQPQPTGFLPPSNFSATMPLTAQKTGFGNNEIYTKSNFNNNLIDNSSQDKISTEEKSLFYKIFETFDTQNKGLLDSPTAVEIFRKSGLNRADLEQIWNLCDINNTGQLNKQEFALGMHLVYGKLNGKPIPNVLPSSLIPSSTKLLDNLKNQLKTEPTTTKEKPSFGKIDALSYKNNDDDVLPNYRNRRKVYSAKNEEQSSFSSPSAKSVNHSSSTLQTDDISVDKTVEKKTAKPKYAGFSREINLKNIASLENEIKNISNPENCYDSSIPSDLTSRFDAIIAKLPNLFNEISTIDNEITNAKIQLYRKKNPSSIIGSGPNGEITENDRKKAKSRALLRARMSALTGKSTESEDSLSMEDEQQSAEIKRIQQENGKNQEIIKDIRSSISDISASLKSTMTGSNMISNQEFERWEFGIGLEDGVREFLDDLKSNSNKSVTESSPFVPSSTPTPVDDRSSSPSYSQFKTAEERAAYLKEQAKKRMKEKLAKFDKNRRNVTQSSRSISSENSREQPQQIAGSSNLVEPRATPFQEEKYVEVAQPTQPVQSTQPVQPTQPVQPTQPVQPTQPVQPTQPVQPTQPVQNVYNAKQESDDEDEDDEEKRLQEELKRLKLKKKADKEKRLAALRKQIEDAQNESDEEETNGKDNFGGHVNVPQAAPVAPSAAFSQNSTNAPRSVHAAVTPAAGKNSTGLPSTTMGHNPYFKDASASSTSTFDARAAEMQRRIQRGLDEDEDDGWSDEDESNNRVAVDNKVEEAKIGHPDHARAPPVTAAPLPSVTPVPPAVPVPQANTSNEKSSPIPIAPIPPSVTQEPPVPLAPPLPAVDGFQEPPIPSAPAIATAVQKSGSSTPALAGGVLPPPPPLPTQQASTSEPIIAHVDNYNGAEKGTGAYGSDSDDDVLSIPESVGTDEEEEGAQPVSTAGIPSIPPAGIPPPPPLP
For the molecule B2, the binding entry in experiment [3] and in experiment [4] was “binds” throughout.

These data come from paper PMC11568337.
